Source: patent US5422341A (Ohmeda Pharmaceutical Products Division Inc., priority 1993, dated 1995)
For part of these data: HELM strings list residues between dots; [ac] is acetyl, [am] amide, other brackets name non-standard units.

Key:
[1] = general procedure: Fmoc solid-phase peptide synthesis in flow; FMOC-L-Gln-(Mbh) PepSynKA resin; Fmoc amino acid Pfp esters with HOBt (Thr as ODhbt ester); details: whole synthesis, scale 0.2 mmole, Bis-trifluoroacetate salt
[2] = general procedure: Fmoc solid-phase peptide synthesis in flow; NovaSynPR 500 resin; Fmoc-L-Gln(Mbh) PepSyn KA resin; PAL resin; Fmoc amino acid Pfp esters with HOBt (Thr as ODhbt ester); details: whole synthesis; for final HPLC purity: 214 nm; for final HPLC purity / isolated yield: scale of the general procedure 0.2 mmole
[3] = general procedure: Fmoc solid-phase peptide synthesis in flow; Fmoc-L-Gln(Mbh)PepSyn KA resin; Fmoc amino acid Pfp esters with HOBt (Thr as ODhbt ester); details: whole synthesis, trifluoroacetate salt
[4] = general procedure: Fmoc solid-phase peptide synthesis in flow; PAL resin; Fmoc amino acid Pfp esters with HOBt (Thr as ODhbt ester); details: whole synthesis, trifluoroacetate salt
[5] = scale of the general procedure 0.2 mmole

Row | Substance | isolated mass [1] [mg] | final purity (method not given) ([2]; analytical HPLC (214 nm) and capillary zone electrophoresis, scale 0.2 mmole, trifluoroacetate salt) [%] | crude yield [3, 5] [%] | crude mass [3] [mg] | final HPLC purity ([2]; trifluoroacetate salt) [%] | isolated mass ([2]; Bis-trifluoroacetate salt) [mg] | isolated yield ([2]; trifluoroacetate salt) [%] | crude yield [4, 5] [%] | crude mass [4] [mg] | isolated mass ([2]; Tris-trifluoroacetate salt) [mg]
1 | (Me3 N^+)-Phe-Val-Pro-Ile-Phe-Thr-Tyr-Gly-Glu-Leu-Gln-Arg-Leu-Gln-OH | 71 | >95 | – | – | – | – | – | – | – | –
2 | PEPTIDE1{F.V.P.I.F.T.Y.G.E.L.Q.[dR].L.Q}$$$$V2.0 | – | – | 85 | 320 | >95 | 107 | 28 | – | – | –
3 | PEPTIDE1{[MeF].V.A.I.F.T.Y.G.E.L.A.[dR].L.[dK].[am]}$$$$V2.0 | – | – | – | – | >95 | – | 36 | 91 | 210 | 82
